Usually viability stands for a read-out of living cells in per cent, often relative to untreated cells.

This is one part of the list.

The test in a line: reducers of endogenous Her2 protein level, primary screen, SKBR3 breast tumor cells, AlphaScreen, ATP viability (AID 461).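 Note: percent of carrier control wells set as 100% viability.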 The settings on record: 18-24 h, measured here: SKBR3 viability, ATP luminescence, at 10 µM, stronger effect = higher value. (Bead proximity is the source of the signal in Alpha formats.)
As to `CP(=O)(Nc1ccccn1)Oc1ccccc1` (stereo not drawn), the viability worked out at 88%.

Take `CP(=O)(Nc1ccc2c(c1)OCCO2)Oc1ccccc1` (stereo not drawn): the viability was 114%.

Take `O=P(Nc1nccs1)(c1ccccc1)c1ccccc1`: the viability was 102%.

`CN(C)CCOC(=O)C(O)(c1ccccc1)C1CCCCC1` (stereo not drawn): the viability was 102%.

`Cc1ccc(C)c(NP(C)(=O)Oc2ccccc2)c1` (stereo not drawn): the viability came to 113%.

For the molecule `CCOP1(=S)c2c(C)nn(CCC#N)c2N=C(c2ccccc2F)N1C` (stereo not drawn), the viability turned out to be 114%.

With `O=C(COc1ccccc1)OC1CN2CCC1CC2` (stereo not drawn), the viability is 94.5%.

Regarding `CP(=S)(Nn1cnnc1)Oc1ccccc1` (stereo not drawn), the viability came to 101%.

(Values after PubChem BioAssay AID461 (SRMLSC, 2006).)
